According to the supplement of paper PMC7661543:
The effect of the compound repeats well; differences between the knockouts mostly do not.

Tested on: MDA-MB-231
Assay: relative cell number vs DMSO control (72 h) (% of DMSO); higher = less growth inhibition (more cells)
Description: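 QMAP-Seq: a pool of 5 breast cancer cell lines (ZR-75-1, SKBR3, HCC-38, MDA-MB-231, BT-20), each carrying 12 doxycycline-inducible Cas9 sgRNA perturbations (11 knockouts plus non-targeting sgNT), was treated with compounds for 72 h at four 10-fold doses (10 nM-10 uM or 1 nM-1 uM range). Barcodes were amplified and sequenced, and cell number was interpolated from 293T spike-in standard curves. The result is expressed as % of the median of DMSO wells. Two biological replicates.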

C#Cc1cccc(Nc2ncnc3cc(OCCOC)c(OCCOC)cc23)c1 [Erlotinib]
Conditions | relative cell number
sgRNA knockout: sgATF3, 10 nM | 109
sgRNA knockout: sgATF3, 100 nM | 105
sgRNA knockout: sgATF3, 1000 nM | 97.8
sgRNA knockout: sgATF3, 10000 nM | 88.7
sgRNA knockout: sgATF4, 10 nM | 124.3
sgRNA knockout: sgATF4, 100 nM | 113
sgRNA knockout: sgATF4, 1000 nM | 87.4
sgRNA knockout: sgATF4, 10000 nM | 104
sgRNA knockout: sgATF6, 10 nM | 114
sgRNA knockout: sgATF6, 100 nM | 75.8
sgRNA knockout: sgATF6, 1000 nM | 110
sgRNA knockout: sgATF6, 10000 nM | 83
sgRNA knockout: sgATG7, 10 nM | 116
sgRNA knockout: sgATG7, 100 nM | 88.2
sgRNA knockout: sgATG7, 1000 nM | 88.3
sgRNA knockout: sgATG7, 10000 nM | 89.5
sgRNA knockout: sgERN1, 10 nM | 168
sgRNA knockout: sgERN1, 100 nM | 102
sgRNA knockout: sgERN1, 1000 nM | 96.7
sgRNA knockout: sgERN1, 10000 nM | 83.4
sgRNA knockout: sgHSF1, 10 nM | 98.9
sgRNA knockout: sgHSF1, 100 nM | 95.05
sgRNA knockout: sgHSF1, 1000 nM | 101
sgRNA knockout: sgHSF1, 10000 nM | 83.9
sgRNA knockout: sgHSF2, 10 nM | 123
sgRNA knockout: sgHSF2, 100 nM | 96
sgRNA knockout: sgHSF2, 1000 nM | 107
sgRNA knockout: sgHSF2, 10000 nM | 80.8
sgRNA knockout: sgKEAP1, 10 nM | 104
sgRNA knockout: sgKEAP1, 100 nM | 109
sgRNA knockout: sgKEAP1, 1000 nM | 97.2
sgRNA knockout: sgKEAP1, 10000 nM | 87.3
sgRNA knockout: sgNFE2L2, 10 nM | 128
sgRNA knockout: sgNFE2L2, 100 nM | 91.2
sgRNA knockout: sgNFE2L2, 1000 nM | 100
sgRNA knockout: sgNFE2L2, 10000 nM | 81.1
sgRNA knockout: sgSLC35F2, 10 nM | 108
sgRNA knockout: sgSLC35F2, 100 nM | 98.1
sgRNA knockout: sgSLC35F2, 1000 nM | 82.8
sgRNA knockout: sgSLC35F2, 10000 nM | 72.6
sgRNA knockout: sgXBP1, 10 nM | 128
sgRNA knockout: sgXBP1, 100 nM | 91.2
sgRNA knockout: sgXBP1, 1000 nM | 111
sgRNA knockout: sgXBP1, 10000 nM | 81.1

Nc1ccn([C@@H]2O[C@H](CO)[C@@H](O)C2(F)F)c(=O)n1 [Gemcitabine]
Conditions | relative cell number
sgRNA knockout: sgATF3, 10 nM | 29.4
sgRNA knockout: sgATF3, 100 nM | 15.8
sgRNA knockout: sgATF3, 1000 nM | 12.2
sgRNA knockout: sgATF3, 10000 nM | 18.1
sgRNA knockout: sgATF4, 10 nM | 23.8
sgRNA knockout: sgATF4, 100 nM | 8.42
sgRNA knockout: sgATF4, 1000 nM | 23.3
sgRNA knockout: sgATF4, 10000 nM | 14.7
sgRNA knockout: sgATF6, 10 nM | 23.1
sgRNA knockout: sgATF6, 100 nM | 13.2
sgRNA knockout: sgATF6, 1000 nM | 12.9
sgRNA knockout: sgATF6, 10000 nM | 15.1
sgRNA knockout: sgATG7, 10 nM | 27.68
sgRNA knockout: sgATG7, 100 nM | 14.5
sgRNA knockout: sgATG7, 1000 nM | 14.9
sgRNA knockout: sgATG7, 10000 nM | 12.32
sgRNA knockout: sgERN1, 10 nM | 23.5
sgRNA knockout: sgERN1, 100 nM | 12.9
sgRNA knockout: sgERN1, 1000 nM | 16.4
sgRNA knockout: sgERN1, 10000 nM | 14.8
sgRNA knockout: sgHSF1, 10 nM | 23
sgRNA knockout: sgHSF1, 100 nM | 15.5
sgRNA knockout: sgHSF1, 1000 nM | 13.2
sgRNA knockout: sgHSF1, 10000 nM | 14.5
sgRNA knockout: sgHSF2, 10 nM | 25.6
sgRNA knockout: sgHSF2, 100 nM | 12.8
sgRNA knockout: sgHSF2, 1000 nM | 14.7
sgRNA knockout: sgHSF2, 10000 nM | 14.8
sgRNA knockout: sgKEAP1, 10 nM | 27.1
sgRNA knockout: sgKEAP1, 100 nM | 15.9
sgRNA knockout: sgKEAP1, 1000 nM | 14.8
sgRNA knockout: sgKEAP1, 10000 nM | 13.5
sgRNA knockout: sgNFE2L2, 10 nM | 23.2
sgRNA knockout: sgNFE2L2, 100 nM | 16.2
sgRNA knockout: sgNFE2L2, 1000 nM | 16.2
sgRNA knockout: sgNFE2L2, 10000 nM | 12.1
sgRNA knockout: sgSLC35F2, 10 nM | 23.9
sgRNA knockout: sgSLC35F2, 100 nM | 16.9
sgRNA knockout: sgSLC35F2, 1000 nM | 11.1
sgRNA knockout: sgSLC35F2, 10000 nM | 12.4
sgRNA knockout: sgXBP1, 10 nM | 23.5
sgRNA knockout: sgXBP1, 100 nM | 16.6
sgRNA knockout: sgXBP1, 1000 nM | 17.3
sgRNA knockout: sgXBP1, 10000 nM | 16.4

Cc1cc2c(C(C)C)c(O)c(O)c(C=O)c2c(O)c1-c1c(C)cc2c(C(C)C)c(O)c(O)c(C=O)c2c1O [Gossypol]
Conditions | relative cell number
sgRNA knockout: sgATF3, 10 nM | 89.9
sgRNA knockout: sgATF3, 100 nM | 85.2
sgRNA knockout: sgATF3, 1000 nM | 109
sgRNA knockout: sgATF3, 10000 nM | 25.7
sgRNA knockout: sgATF4, 10 nM | 107
sgRNA knockout: sgATF4, 100 nM | 103
sgRNA knockout: sgATF4, 1000 nM | 101
sgRNA knockout: sgATF4, 10000 nM | 23.5
sgRNA knockout: sgATF6, 10 nM | 105
sgRNA knockout: sgATF6, 100 nM | 99.9
sgRNA knockout: sgATF6, 1000 nM | 123
sgRNA knockout: sgATF6, 10000 nM | 25.7
sgRNA knockout: sgATG7, 10 nM | 92.2
sgRNA knockout: sgATG7, 100 nM | 89.6
sgRNA knockout: sgATG7, 1000 nM | 100.9
sgRNA knockout: sgATG7, 10000 nM | 22.9
sgRNA knockout: sgERN1, 10 nM | 85.4
sgRNA knockout: sgERN1, 100 nM | 141
sgRNA knockout: sgERN1, 1000 nM | 106
sgRNA knockout: sgERN1, 10000 nM | 26.1
sgRNA knockout: sgHSF1, 10 nM | 99.3
sgRNA knockout: sgHSF1, 100 nM | 82.8
sgRNA knockout: sgHSF1, 1000 nM | 95.9
sgRNA knockout: sgHSF1, 10000 nM | 24
sgRNA knockout: sgHSF2, 10 nM | 112
sgRNA knockout: sgHSF2, 100 nM | 97.6
sgRNA knockout: sgHSF2, 1000 nM | 106
sgRNA knockout: sgHSF2, 10000 nM | 25.6
sgRNA knockout: sgKEAP1, 10 nM | 102
sgRNA knockout: sgKEAP1, 100 nM | 135
sgRNA knockout: sgKEAP1, 1000 nM | 82.4
sgRNA knockout: sgKEAP1, 10000 nM | 25.35
sgRNA knockout: sgNFE2L2, 10 nM | 69.9
sgRNA knockout: sgNFE2L2, 100 nM | 89.6
sgRNA knockout: sgNFE2L2, 1000 nM | 93.9
sgRNA knockout: sgNFE2L2, 10000 nM | 21.9
sgRNA knockout: sgSLC35F2, 10 nM | 112
sgRNA knockout: sgSLC35F2, 100 nM | 109
sgRNA knockout: sgSLC35F2, 1000 nM | 105
sgRNA knockout: sgSLC35F2, 10000 nM | 28.7
sgRNA knockout: sgXBP1, 10 nM | 93.5
sgRNA knockout: sgXBP1, 100 nM | 92.8
sgRNA knockout: sgXBP1, 1000 nM | 103
sgRNA knockout: sgXBP1, 10000 nM | 26.3
